Results are given in words; binding and its absence hold for the method and conditions named. Binding seen in cells or lysates may run through a third protein. Some entries that bind do so weakly or less than the wild type.
Biological target: T1, Vitamin D receptor (human (endogenous in K1 cells)) (UniProt P11473)
T1 sequence: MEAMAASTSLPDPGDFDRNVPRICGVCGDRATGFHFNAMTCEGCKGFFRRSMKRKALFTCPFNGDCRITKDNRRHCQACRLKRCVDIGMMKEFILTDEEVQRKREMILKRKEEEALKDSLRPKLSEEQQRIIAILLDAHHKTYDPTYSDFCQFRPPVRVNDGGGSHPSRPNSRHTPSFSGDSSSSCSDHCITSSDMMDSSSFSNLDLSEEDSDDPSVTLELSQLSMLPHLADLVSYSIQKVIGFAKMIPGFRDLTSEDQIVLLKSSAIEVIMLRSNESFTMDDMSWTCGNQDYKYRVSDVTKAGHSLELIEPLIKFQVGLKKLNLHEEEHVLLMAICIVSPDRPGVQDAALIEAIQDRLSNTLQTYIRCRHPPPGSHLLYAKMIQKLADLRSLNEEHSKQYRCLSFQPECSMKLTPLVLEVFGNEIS
Experiment: co-IP; membrane protein extracts of K1 cells (100 µg) incubated with 2 µg anti-VDR antibody or rabbit IgG overnight at 4°C, protein G plus/protein A agarose beads, washes with PBS, Western blot for VDR, E-cadherin and β-catenin

Protein sequences, listed by entry. Tags and fused reporters are not part of them.
UniProt P35222: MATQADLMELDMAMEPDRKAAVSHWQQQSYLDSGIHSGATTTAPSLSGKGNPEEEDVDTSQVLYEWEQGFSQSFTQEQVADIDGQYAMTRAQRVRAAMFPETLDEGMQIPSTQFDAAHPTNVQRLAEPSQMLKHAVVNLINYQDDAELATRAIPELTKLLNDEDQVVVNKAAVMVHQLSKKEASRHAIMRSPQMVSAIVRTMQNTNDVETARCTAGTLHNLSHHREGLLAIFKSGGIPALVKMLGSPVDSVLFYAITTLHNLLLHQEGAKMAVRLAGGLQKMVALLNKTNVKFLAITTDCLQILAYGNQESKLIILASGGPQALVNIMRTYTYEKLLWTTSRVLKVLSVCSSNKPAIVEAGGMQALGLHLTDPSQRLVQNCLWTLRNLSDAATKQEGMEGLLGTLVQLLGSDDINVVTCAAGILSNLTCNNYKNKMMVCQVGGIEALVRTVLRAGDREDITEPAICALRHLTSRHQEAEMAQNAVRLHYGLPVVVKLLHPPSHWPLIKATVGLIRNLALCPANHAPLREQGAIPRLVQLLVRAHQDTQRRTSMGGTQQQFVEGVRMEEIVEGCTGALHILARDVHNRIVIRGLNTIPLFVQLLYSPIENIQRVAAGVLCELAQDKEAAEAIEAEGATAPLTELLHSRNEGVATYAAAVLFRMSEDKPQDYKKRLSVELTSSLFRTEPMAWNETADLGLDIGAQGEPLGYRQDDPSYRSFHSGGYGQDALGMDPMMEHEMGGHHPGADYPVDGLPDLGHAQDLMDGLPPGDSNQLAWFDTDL

For β-catenin (from UniProt P35222 1-781), the binding was “binds”.

— publication PMC8942331
